The values below come from PMC9078569, “Understanding the inhibitory mechanism of tea polyphenols against tyrosinase using fluorescence spectroscopy, cyclic voltammetry, oximetry, and molecular simulations” (RSC Advances, 2018).

The data set has as its system Tyrosinase (TYR, EC1.14.18.1) from mushroom. The data set can be described thus: Cyclic voltammetry of TPs on glassy carbon electrode modified by MWCNT and tyrosinase. Conditions: CV, 50 mV s^−1, pH 6.5 phosphate buffer.

The structures appear in SMILES notation.

With `Oc1cc(O)c2c(c1)OC(c1ccc(O)c(O)c1)C(O)C2` (single isomer, unassigned; (+)) [Catechin, (+)-catechin], the “first oxidation peak potential (ring B)” value was found to be 0.26 V. On to `O=C(OC1Cc2c(O)cc(O)cc2OC1c1ccc(O)c(O)c1)c1cc(O)c(O)c(O)c1` (single isomer, unassigned; (-)) [ECG, (−)-epicatechin gallate], for which the “first oxidation peak potential (ring B)” value was 0.27 V. Under `O=C(OC1Cc2c(O)cc(O)cc2OC1c1cc(O)c(O)c(O)c1)c1cc(O)c(O)c(O)c1` (single isomer, unassigned; (-)) [EGCG, (−)-epigallocatechin-3-O-gallate] stands 0.21 V.
